Results deposited as PubChem BioAssay AID1224830 (NIAID, 2016).
Assay: 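Regulators of TLR4 signalling towards TNF-alpha in macrophage-like cells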 (primary screen). Cells: human THP-1 monocytic leukaemia cells, TNF dual-luciferase reporter clone, PMA-differentiated to macrophage-like cells. Reagents: siRNA pool against human genes, 50 nM. Timing: LPS for 4 h, given about 3 days after siRNA transfection. Conditions: bacterial LPS (TLR4 ligand), 10 ng/ml. Read-out: 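Ratio of firefly to renilla light, scaled to the plate median and expressed as a robust z-score per replicate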. Direction: TNF reporter robust z-score: higher = stronger TNF reporter response to LPS. Call rule: 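a well is active when its z-score exceeds 2.8 or falls below -1.5; control wells carry no call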.
In all, the deposit lists about 18,000 reagents; this is a part drawn at random. In the full data, about 2,900 (16%) were called active. 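Calls are made per well; low scores hint the gene aids the LPS response, high scores that it dampens it.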 A number with no mark means an inactive call. Repeated entries: four replicate wells of each siRNA pool.

GIP: TNF reporter robust z-score = -0.65
GIP: TNF reporter robust z-score = -1.21
GIP: TNF reporter robust z-score = 0.18
GIP: TNF reporter robust z-score = 0.57
DPM1: TNF reporter robust z-score = -0.22
DPM1: TNF reporter robust z-score = 1.12
DPM1: TNF reporter robust z-score = -0.16
DPM1: TNF reporter robust z-score = 2
IARS1: TNF reporter robust z-score = 1.79
IARS1: TNF reporter robust z-score = 1.36
IARS1: TNF reporter robust z-score = 0.01
IARS1: TNF reporter robust z-score = -0.26
KLRD1: TNF reporter robust z-score = -1.16
KLRD1: TNF reporter robust z-score = 0.91
KLRD1: TNF reporter robust z-score = 0.58
KLRD1: TNF reporter robust z-score = 1.4
KLC2: TNF reporter robust z-score = -0.85
KLC2: TNF reporter robust z-score = -1.84 (active)
KLC2: TNF reporter robust z-score = 0.06
KLC2: TNF reporter robust z-score = -0.18
CNOT6L: TNF reporter robust z-score = -0.96
CNOT6L: TNF reporter robust z-score = -0.95
CNOT6L: TNF reporter robust z-score = -0.9
CNOT6L: TNF reporter robust z-score = 0.06
OBSCN: TNF reporter robust z-score = 0.76
OBSCN: TNF reporter robust z-score = 0.94
OBSCN: TNF reporter robust z-score = 1.01
OBSCN: TNF reporter robust z-score = 0.87
NR2C1: TNF reporter robust z-score = 3.38 (active)
NR2C1: TNF reporter robust z-score = 2.2
NR2C1: TNF reporter robust z-score = 0.63
NR2C1: TNF reporter robust z-score = 3.71 (active)
EPHX1: TNF reporter robust z-score = 1.01
EPHX1: TNF reporter robust z-score = 2.28
EPHX1: TNF reporter robust z-score = 1.15
EPHX1: TNF reporter robust z-score = 3.12 (active)
HOOK3: TNF reporter robust z-score = -0.18
HOOK3: TNF reporter robust z-score = 1.25
HOOK3: TNF reporter robust z-score = -0.58
HOOK3: TNF reporter robust z-score = 0.92
PSMC2: TNF reporter robust z-score = -1.57 (active)
PSMC2: TNF reporter robust z-score = -1.38
PSMC2: TNF reporter robust z-score = -1.46
PSMC2: TNF reporter robust z-score = -1.2
OR4C15: TNF reporter robust z-score = -0.2
OR4C15: TNF reporter robust z-score = 0.24
OR4C15: TNF reporter robust z-score = 0.19
OR4C15: TNF reporter robust z-score = 1.18
